No constants are given. Whether binding was seen depends on the method and setting. Binding seen in cells or lysates may run through a third protein.
Biological target: T1, ERLIN2 (ER lipid raft-associated 2) (human (endogenous in HeLa)) (UniProt O94905)
T1 sequence: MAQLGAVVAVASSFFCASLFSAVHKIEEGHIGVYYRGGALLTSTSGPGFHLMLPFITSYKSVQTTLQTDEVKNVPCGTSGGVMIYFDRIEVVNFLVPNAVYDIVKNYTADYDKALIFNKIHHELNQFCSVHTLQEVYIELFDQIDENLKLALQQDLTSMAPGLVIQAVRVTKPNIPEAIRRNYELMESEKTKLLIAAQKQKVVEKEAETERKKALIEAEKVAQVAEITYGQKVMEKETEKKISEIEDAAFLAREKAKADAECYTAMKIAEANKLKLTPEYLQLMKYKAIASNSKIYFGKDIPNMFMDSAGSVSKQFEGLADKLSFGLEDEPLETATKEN
Assay: co-IP; reciprocal co-IPs of endogenous ERLIN2 and TMUB1 from HeLa lysate (IP buffer: Tris-HCl pH 7.4 50 mM, KCl 50 mM, Triton X-100 0.5%), Western blot

binding: no binding
Substance: TMUB1-S (short isoform of TMUB1) (human (endogenous in HeLa))
